# According to patent US20240116988A1, “ANTI-ROR1 MACROCYCLIC PEPTIDES AND COMPOSITIONS” (BRISTOL-MYERS SQUIBB COMPANY, priority 2022, published 2024):
# Amino acid sequences for entries named in this document (tags omitted). Residues count along the entry.
# UniProt Q01973, 30-937: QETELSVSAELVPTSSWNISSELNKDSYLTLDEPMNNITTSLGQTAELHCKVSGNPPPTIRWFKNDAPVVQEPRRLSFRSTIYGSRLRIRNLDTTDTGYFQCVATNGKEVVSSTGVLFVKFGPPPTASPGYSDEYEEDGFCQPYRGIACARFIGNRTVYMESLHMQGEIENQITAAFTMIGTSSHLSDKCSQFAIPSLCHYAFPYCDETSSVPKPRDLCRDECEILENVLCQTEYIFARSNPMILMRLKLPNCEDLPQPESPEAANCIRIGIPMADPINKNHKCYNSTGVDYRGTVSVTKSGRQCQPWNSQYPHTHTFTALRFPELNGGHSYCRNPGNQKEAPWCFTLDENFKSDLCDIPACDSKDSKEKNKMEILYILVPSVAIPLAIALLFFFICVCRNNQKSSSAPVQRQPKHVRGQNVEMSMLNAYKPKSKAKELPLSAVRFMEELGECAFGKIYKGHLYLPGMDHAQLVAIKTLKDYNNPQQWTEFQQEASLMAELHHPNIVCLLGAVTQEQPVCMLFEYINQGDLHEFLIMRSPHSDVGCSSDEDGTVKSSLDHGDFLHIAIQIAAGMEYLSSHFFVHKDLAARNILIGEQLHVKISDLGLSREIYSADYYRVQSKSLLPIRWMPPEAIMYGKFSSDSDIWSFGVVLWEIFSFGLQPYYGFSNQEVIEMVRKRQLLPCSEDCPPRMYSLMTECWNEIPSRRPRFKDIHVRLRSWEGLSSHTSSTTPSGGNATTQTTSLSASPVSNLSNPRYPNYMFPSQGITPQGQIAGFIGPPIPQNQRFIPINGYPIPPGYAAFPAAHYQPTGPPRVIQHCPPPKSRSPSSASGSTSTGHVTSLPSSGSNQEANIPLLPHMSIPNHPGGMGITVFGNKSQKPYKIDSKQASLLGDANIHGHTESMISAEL
# pIC50: −log10 of the molar value. At least one structure is not confirmed: it was looked up by name or label, or the drawing left a doubt. Positions of bridges follow the written chain, without caps; N, C: chain ends. Non-standard residues stand in square brackets, D forms with d. Residues, ends and D or L forms follow the SMILES beside them. NMeF = CN[C@@H](Cc1ccccc1)C(=O)O; AEEA = NCCOCCOCC(=O)O
# Biological target: T1, human ROR1 (Homo sapiens, UniProt Q01973)
# T1 construct: host or cells: HEK 293T cells, Tet-on system induced with doxycycline
# Test: ROR1 high content cell-based binding assay
# Conditions: 293T cells expressing human ROR1 (Tet-on, doxycycline); inhibition of binding of 5-FAM-labeled probe (Example 1300) at 30 nM; 1 hour at 37° C.; read-out: ROR1 Binding 293T Human HC Cell Based Assay IC50
# Method: ROR1 high content cell-based binding assay: Human embryonic kidney 293T cells (293T) expressing human ROR1 with Tet-on system by doxycycline were used (Arctic-488134) for the assessment of inhibition of the binding of fluorescently-labeled competing peptide (“Probe”) that specifically binds to human ROR1. […] Cryopreserved vials were thawed in a 37° C. water bath. Cells were washed in assay culture media [DMEM (Life Technologies Inc. Cat. […] Cat. No. 15140-122) and […] dox] and diluted 1.0×10^5 cells/mL. Cells were seeded into PDL-coated 384 well plates (BD Falcon Cat. No. 356663) at 2,000 cells/20 μL. Plates were allowed to incubate for 10 minutes at room temperature and then transferred to a 37° C./5% CO2 incubator for overnight incubation. The next day, 125 nL of the test compound was added using an ECHO followed by the addition of 5 μL/well of 5-FAM-labeled probe to cells at a final concentration of 30 nM. Sample were incubated for 1 hour at 37° C. for 1 hour, followed by 3 washes in […] of dPBS. Cells were fixed by adding 8% (w/v) formaldehyde (Sigma Cat. No. 252549), 20 μg/mL Hoechst (Thermo Scientific Cat. No. 62249) in PBS for 20 minutes at room temperature. The plates were washed 3 more times in dPBS and 15 μl of PBS was left in the wells following the last wash. […]
row,pIC50,SMILES
1,7.82,CC[C@H](C)[C@@H]1NC(=O)[C@H](Cc2c[nH]c3ccccc23)NC(=O)[C@H](Cc2ccccc2)NC(=O)[C@H](Cc2ccc(O)cc2)NC(=O)[C@@H](Cc2ccccc2)NC(=O)CSC[C@@H](C(=O)NCC(N)=O)NC(=O)[C@H](C)NC(=O)[C@H]([C@@H](C)CC)NC(=O)[C@H](C(C)C)NC(=O)[C@H](Cc2c[nH]c3ccccc23)NC(=O)[C@H](CCCNC(=N)N)NC(=O)CNC1=O [Example 1007] ({CH2CO}-[dF]YFWIGRWVIACG-NH2; thioether N-12)
2,7.40,CC(C)C[C@@H]1NC(=O)[C@H](Cc2ccc(O)cc2)NC(=O)[C@H](Cc2ccccc2)NC(=O)CSC[C@@H](C(=O)NCCOCCOCC(=O)N[C@@H](CCCCN)C(N)=O)NC(=O)[C@H](CC(C)C)NC(=O)[C@H](Cc2ccccc2)N(C)C(=O)[C@H](Cc2ccc(O)cc2)NC(=O)[C@H](Cc2c[nH]c3ccccc23)NC(=O)CNC(=O)[C@H](CO)NC(=O)[C@H](Cc2ccc(O)cc2)NC(=O)[C@H](C(C)C)NC1=O [Example 1078] ({CH2CO}-FYLVYSGWY[NMeF]LC[AEEA]K-NH2; thioether N-12)
